From ChEMBL document CHEMBL3988442, “University of Dundee, Small-Polar-MMV Screening Library” (2021).

A: 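Whole-cell assay for inhibitors of Mycobacterium tuberculosis growth, labelled Cornell in the record; the read-out is not stated. The concentration is filed as 10 mM, unlikely as a test dose, so the dose is not known. The record gives no direction; compounds strong in two other growth screens of this library score well above the rest, so higher reads as stronger inhibition. Size under these conditions: about 53,000 compounds, about 900 of them at 50% or above in at least one test.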
B: 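Assay on Mycobacterium tuberculosis, filed only as a heat shock assay from Cornell; the read-out is not stated. The concentration is filed as 10 mM, unlikely as a test dose, so the dose is not known. Direction is inferred from retests: higher values go with stronger inhibition. Of about 69,000 compounds tested this way, about 930 (1.4%) reached 50% or more in at least one test.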

Values are the deposited “Percent Effect”, in %.
The controls that fix the scale are not given in the record; negative values are as filed.
Compounds were drawn at random from those tested, without regard to their results.
A dash means the value is not listed here; it may have been measured.

SMILES | A | B
CCOc1cc(CNCc2nc(C)cc(=O)[nH]2)c(Cl)cc1OC(C)C | 8.083% | 37.86%
Cc1cc(NC(=O)CN2CCCC(Cn3cncn3)C2)no1 (stereo not drawn) | 30.1% | 23.08%
CNC(=O)c1cccnc1N1CCN(C/C=C/c2ccccc2)CC1 | 39.11% | -16.33%
CC(C)c1cc2c(O)nc(CSCC(=O)O)nc2s1 | - | -12.83%
Cc1c(Cl)cccc1NC(=O)N1CCC2(CC1)NC(=O)CC2C(=O)O (stereo not drawn) | - | -2.153%
CNCc1cn(C2CCN(CCC(C)c3ccccc3)CC2)nn1 (stereo not drawn) | - | -15.8%
COc1cccc(S(=O)(=O)CCN2CCn3c(C)nnc3C2)c1 | - | -1.705%
Cc1cc2ccccc2n1CCC(=O)N1CCC[C@H]1C(N)=O | 9.96% | 32.24%
Cn1ccnc1CN1CCCN(C(=O)c2ccc3c(c2)COC3)CC1 | 7.873% | -4.812%
CCCS(=O)(=O)N1CCN(CCCO)CC1 | - | 1.165%
[H][C@]12CC(=O)N(C(C)C)[C@@]1([H])CCN2C(=O)c1ccco1 | -31.35% | -3.229%
O=C(O)C(F)(F)F.[H][C@@]12CCN(Cc3ccoc3)C[C@]1([H])OCCN(Cc1cccc(F)c1)C2=O | 26.83% | -1.035%
CS(=O)(=O)NCc1cnc2n1CCN(Cc1ccco1)CC2.O=C(O)C(F)(F)F | 3.098% | -36.91%
Cc1cccc(C(=O)NCc2cccnc2N(C)C)n1 | - | -6.23%
Cc1nc(CC2CCCN(Cc3nc4ccccc4c(=O)[nH]3)C2)no1 (stereo not drawn) | 25.61% | -1.859%
COc1ccccc1-c1ncc(CN2CCCC(CCC(N)=O)C2)s1 (stereo not drawn) | 7.136% | 16.34%
CCN(Cc1ccc2c(c1)OCCO2)C(=O)c1ccc(C)[nH]c1=O | - | -10.22%
COCCN1CC(Nc2nc(C(C)C)nc3c2cnn3C)CC1=O (stereo not drawn) | 20.96% | 26.65%
CN(C(=O)c1cccnc1)C1CCCN(CCc2ccccc2)C1 (stereo not drawn) | - | -15.13%
Cc1nc(N2CCCC2)nc2c1CCN(Cc1ccco1)CC2.O=C(O)C(F)(F)F | 96.95% | 66.31%
O=C(NCC(Cc1cccc(F)c1)N1CCCC1=O)c1ccccc1 (stereo not drawn) | -6.372% | -2.321%
Cc1ncsc1C(=O)N(Cc1cccnc1)C1CC1 | 16.36% | -25.35%
[H][C@@]12COC[C@]1(COc1cccnc1)CN(C(=O)C1=CCCC1)C2 | 2.434% | 1.513%
Cn1c2c(ccc1=O)CCN(Cc1ccoc1)CC2.O=C(O)C(F)(F)F | 7.444% | -16.65%
CC(=O)N1CCCN(c2nccc(-c3c(C)nn(C)c3C)n2)CC1 | -0.03723% | 8.347%
CC(=O)N1CCc2c(nc(-c3ccccn3)nc2N(C)CC(O)CO)C1 (stereo not drawn) | -20.76% | 7.024%
O=C(O)c1ccc(=O)n(CC(c2ccc(Cl)cc2)N2CCCCCC2)c1 (stereo not drawn) | 15.97% | 0.1083%
CNS(=O)(=O)CCCN1CCCC1c1cc(C)on1 (stereo not drawn) | -14.92% | -5.921%
CC(C)(C)N1CC(C(=O)N2CCN(CCn3cncn3)CC2)CC1=O (stereo not drawn) | - | -17.53%
CCN1CCCC1CNCc1cc2ccccc2[nH]c1=O (stereo not drawn) | -2.596% | 9.362%
O=C(O)C(F)(F)F.O=C(c1ccc[nH]1)N1CC[C@@H](OCC2CC2)[C@@H]1Cc1cccnc1 | 0.3858% | -25.54%
COc1ccc(CCN)cc1-c1ccc(C(N)=O)cc1 | -9.151% | 9.464%
CN(C)C(=O)c1cccnc1SCc1ccccc1Cl | 0.3552% | -6.839%
Cc1ccc(NC(=O)C2CCCN2C(=O)C2CC2)nc1 (stereo not drawn) | -13.49% | 4.244%
O=S(=O)(c1cccc(Cl)c1)N1CCCC(Cn2cncn2)C1 (stereo not drawn) | - | -1.052%
Cc1cc(C)nc(CNC(=O)C(c2cccnc2)N2CCOCC2)n1 (stereo not drawn) | -2.944% | 30.91%
Cc1oc(C)c(C(=O)NCc2ccccn2)c1C | - | 5.81%
Cc1n[nH]c(C2CN(CC(=O)NCCC3=CCCCC3)CCO2)n1 (stereo not drawn) | -4.775% | -9.514%
Cc1nc(-c2ccc(CC(=O)N3CCNC(=O)C3)cc2)cs1 | - | -33.23%
Cc1nn(C)c2cnn(Cc3ccc(C(=O)N4CCN(C)CC4)o3)c12 | -37.61% | -7.298%
Cc1cc(C(=O)N2CCCC(C)C2)ccc1NCc1nc(C2CC2)no1 (stereo not drawn) | 1.047% | -5.992%
COc1cc(C)ccc1OCC(=O)NS(=O)(=O)c1ccc(Br)s1 | - | -2.5%
COC(=O)N1CC(C)=C(C)CN1C(=O)Nc1cccc(Cl)c1 | 16.87% | -9.807%
Cc1nn(C)cc1-c1cc(C(=O)N2CCc3ncc(Cl)cc3C2)on1 | 7.966% | 1.324%
O=C1NCC2(CCCN(C(=O)CCn3cnc4ccccc43)CC2)O1 (stereo not drawn) | -0.9742% | -31.86%
CSCC(=O)N1CCCC(CCC(=O)N(C)CCc2ccccn2)C1 (stereo not drawn) | - | -10.48%
COc1ccc(Nc2nc3c(C)nn(C)c3c(=O)n2C)c(OC)c1 | -53.01% | -10.11%
Cc1ccc(-c2nc(C(=O)N3CCN(C(=O)N(C)C)CC3)cs2)c(C)c1 | - | -24.61%
O=C(c1cc(-c2ccco2)cs1)N1CCOCC1 | 26.26% | -6.991%
Cc1ccc(C2(C(=O)N3CCC(n4cc(C(C)O)nn4)CC3)CC2)cc1 (stereo not drawn) | -20.52% | 7.314%
O=C(CCN1CCOC1=O)Nc1cnn(-c2ccccc2Cl)c1 | - | -6.21%
O=C(O)C(F)(F)F.[H][C@]12CCN(c3ncccn3)[C@@]1([H])CC[C@H](COCC(=O)N1CCCC1)O2 | 33.14% | 3.244%
O=C(O)C(F)(F)F.O=C(O)C(F)(F)F.O=C(O)C(F)(F)F.[H][C@@]12CN(CCOC)C[C@]1([H])[C@@H](OC)CCN2Cc1ccncc1 | 9.534% | -29.92%
Cc1ncncc1C(=O)N1CCCC(c2[nH]ncc2S(C)(=O)=O)C1 (stereo not drawn) | - | 6.508%

Some entries from above, unchanged:

For COCCN1CC(Nc2nc(C(C)C)nc3c2cnn3C)CC1=O (stereo not drawn) the result was A: 20.96%; B: 26.65%.
For [H][C@]12CC(=O)N(C(C)C)[C@@]1([H])CCN2C(=O)c1ccco1 the result was A: -31.35%; B: -3.229%.
For O=C(NCC(Cc1cccc(F)c1)N1CCCC1=O)c1ccccc1 (stereo not drawn) the result was A: -6.372%; B: -2.321%.
For O=C(CCN1CCOC1=O)Nc1cnn(-c2ccccc2Cl)c1 the result was B: -6.21%.
For [H][C@@]12COC[C@]1(COc1cccnc1)CN(C(=O)C1=CCCC1)C2 the result was A: 2.434%; B: 1.513%.
For CC(=O)N1CCc2c(nc(-c3ccccn3)nc2N(C)CC(O)CO)C1 (stereo not drawn) the result was A: -20.76%; B: 7.024%.
For Cc1nn(C)c2cnn(Cc3ccc(C(=O)N4CCN(C)CC4)o3)c12 the result was A: -37.61%; B: -7.298%.